Source: publication PMC3424240
No constants are given. Whether binding was seen depends on the method and setting. In cells and extracts the contact can be indirect. Here binding means that the protein was enriched with, or labelled near, the bait; the list need not be complete. Where a sequence is shown, tags or fusion partners need not be part of it.

Target: T1, FLAG-Setd1b (aa 225–1671) (human) (UniProt Q9UPS6)
T1 sequence: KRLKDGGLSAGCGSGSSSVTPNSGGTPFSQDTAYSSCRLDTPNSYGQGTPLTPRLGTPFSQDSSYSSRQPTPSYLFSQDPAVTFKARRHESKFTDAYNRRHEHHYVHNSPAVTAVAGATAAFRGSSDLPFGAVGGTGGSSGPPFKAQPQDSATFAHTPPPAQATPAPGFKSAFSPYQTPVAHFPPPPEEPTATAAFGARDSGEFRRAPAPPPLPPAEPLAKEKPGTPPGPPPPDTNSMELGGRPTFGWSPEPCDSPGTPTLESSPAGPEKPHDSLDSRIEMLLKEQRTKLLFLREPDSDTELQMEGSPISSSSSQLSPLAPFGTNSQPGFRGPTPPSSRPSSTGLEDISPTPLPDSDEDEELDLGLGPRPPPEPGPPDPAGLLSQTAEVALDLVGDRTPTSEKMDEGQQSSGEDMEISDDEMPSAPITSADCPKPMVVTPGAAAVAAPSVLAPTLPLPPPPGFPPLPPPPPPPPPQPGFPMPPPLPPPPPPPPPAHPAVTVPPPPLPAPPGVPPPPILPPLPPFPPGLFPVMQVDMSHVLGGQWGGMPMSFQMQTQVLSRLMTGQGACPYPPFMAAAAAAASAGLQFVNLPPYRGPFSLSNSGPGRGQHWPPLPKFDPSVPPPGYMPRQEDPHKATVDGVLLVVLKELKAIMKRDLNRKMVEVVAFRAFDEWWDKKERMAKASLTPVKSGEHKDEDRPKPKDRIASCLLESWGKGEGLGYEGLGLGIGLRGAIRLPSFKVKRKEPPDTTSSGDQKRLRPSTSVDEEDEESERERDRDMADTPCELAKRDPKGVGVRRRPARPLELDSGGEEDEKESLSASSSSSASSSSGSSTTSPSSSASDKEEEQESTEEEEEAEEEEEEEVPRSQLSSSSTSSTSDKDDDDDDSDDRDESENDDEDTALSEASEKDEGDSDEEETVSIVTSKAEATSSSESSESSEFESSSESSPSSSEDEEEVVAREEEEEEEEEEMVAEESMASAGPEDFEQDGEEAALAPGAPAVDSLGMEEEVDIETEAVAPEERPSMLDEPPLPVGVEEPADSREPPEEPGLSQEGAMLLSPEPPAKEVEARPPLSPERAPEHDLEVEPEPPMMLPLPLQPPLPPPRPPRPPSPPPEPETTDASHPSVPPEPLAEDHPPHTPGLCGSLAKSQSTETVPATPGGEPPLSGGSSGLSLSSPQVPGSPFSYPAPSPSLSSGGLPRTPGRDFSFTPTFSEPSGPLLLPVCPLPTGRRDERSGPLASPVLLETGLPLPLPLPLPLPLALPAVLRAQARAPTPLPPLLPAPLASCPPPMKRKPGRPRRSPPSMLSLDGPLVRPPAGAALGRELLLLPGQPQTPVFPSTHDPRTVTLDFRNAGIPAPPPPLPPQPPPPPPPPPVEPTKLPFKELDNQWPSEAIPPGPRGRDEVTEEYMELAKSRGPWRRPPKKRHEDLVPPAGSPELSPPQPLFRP
Assay: affinity purification with mass spectrometry; FLAG immunoprecipitation (anti-FLAG M2 agarose, 3 h) from nuclear extracts of doxycycline-induced T-REx HEK293 lines, elution with FLAG peptide, SDS-PAGE, Coomassie bands identified by LTQ ion trap mass spectrometry

binding: binds
B1: endogenous Rbm15 (protein, UniProt Q96T37 1-977)
chain: MRTAGRDPVPRRSPRWRRAVPLCETSAGRRVTQLRGDDLRRPATMKGKERSPVKAKRSRGGEDSTSRGERSKKLGGSGGSNGSSSGKTDSGGGSRRSLHLDKSSSRGGSREYDTGGGSSSSRLHSYSSPSTKNSSGGGESRSSSRGGGGESRSSGAASSAPGGGDGAEYKTLKISELGSQLSDEAVEDGLFHEFKRFGDVSVKISHLSGSGSGDERVAFVNFRRPEDARAAKHARGRLVLYDRPLKIEAVYVSRRRSRSPLDKDTYPPSASVVGASVGGHRHPPGGGGGQRSLSPGGAALGYRDYRLQQLALGRLPPPPPPPLPRDLERERDYPFYERVRPAYSLEPRVGAGAGAAPFREVDEISPEDDQRANRTLFLGNLDITVTESDLRRAFDRFGVITEVDIKRPSRGQTSTYGFLKFENLDMSHRAKLAMSGKIIIRNPIKIGYGKATPTTRLWVGGLGPWVPLAALAREFDRFGTIRTIDYRKGDSWAYIQYESLDAAHAAWTHMRGFPLGGPDRRLRVDFADTEHRYQQQYLQPLPLTHYELVTDAFGHRAPDPLRGARDRTPPLLYRDRDRDLYPDSDWVPPPPPVRERSTRTAATSVPAYEPLDSLDRRRDGWSLDRDRGDRDLPSSRDQPRKRRLPEESGGRHLDRSPESDRPRKRHCAPSPDRSPELSSSRDRYNSDNDRSSRLLLERPSPIRDRRGSLEKSQGDKRDRKNSASAERDRKHRTTAPTEGKSPLKKEDRSDGSAPSTSTASSKLKSPSQKQDGGTAPVASASPKLCLAWQGMLLLKNSNFPSNMHLLQGDLQVASSLLVEGSTGGKVAQLKITQRLRLDQPKLDEVTRRIKVAGPNGYAILLAVPGSSDSRSSSSSAASDTATSTQRPLRNLVSYLKQKQAAGVISLPVGGNKDKENTGVLHAFPPCEFSQQFLDSPAKALAKSEEDYLVMIIVRGFGFQIGVRYENKKRENLALTLL
